Read-outs that look alike come from different tables or passages of the source. At least one compound was matched to its structure with a doubt left.
Key:
U251 glioma cells = test: Cell viability (MTT) assay in U251 cells transfected with TOP2A or cyclophilin siRNA; assay type: cell-based; conditions: MTT assay after 48 hrs
Method: At test for difference in the % viability of the control and TOP2A siRNA treated cells was estimated and the p values are shown: 2, 4, 8 and 16 μg/mL; p=0.0297, 0.0336, <0.0001 and 0.042 respectively.
The experiment was carried out as in “D” but the cells were treated with temozolomide. At test for difference in the % viability of the control and TOP2A siRNA treated cells was estimated and the p values are shown: 250, 500, 1000 and 2000 μM; p=0.0668, 0.0097, 0.0687 and 0.0134 respectively.
U373, U138, LN18, LN229, U343, U87, K562, U251 and SVG cells were cultured in DMEM respectively with 10% Fetal bovine serum, penicillin and streptomycin at 37° C. in a humidified atmosphere with 5% CO2. The human TOP2A and cyclophilin siRNA duplexes were designed and chemically synthesized by Dharmacon Research (Lafayette, Colo.). The SMARTpool siRNA is a mixture of four different siRNA duplexes targeting distinct coding region sequences of TOP2A (Genbank™ accession number NM_001067). […]
For chemosensitivity assays, 24 hours after plating, the cells were treated with the cytotoxic drugs and incubated at 37° C., 5% CO2 for 45 hours. […] Three hours after MTT addition, the formazan crystals were dissolved in DMSO (200 μl) and measured as absorbance at 550 nm. The absorbance by the control cells was considered to be 100% and all samples were normalized to the control cells. […]

Amino acid sequences for entries named in this document (tags omitted). A change or cut given only in a name is not applied to a line headed by its entry.
UniProt P11388: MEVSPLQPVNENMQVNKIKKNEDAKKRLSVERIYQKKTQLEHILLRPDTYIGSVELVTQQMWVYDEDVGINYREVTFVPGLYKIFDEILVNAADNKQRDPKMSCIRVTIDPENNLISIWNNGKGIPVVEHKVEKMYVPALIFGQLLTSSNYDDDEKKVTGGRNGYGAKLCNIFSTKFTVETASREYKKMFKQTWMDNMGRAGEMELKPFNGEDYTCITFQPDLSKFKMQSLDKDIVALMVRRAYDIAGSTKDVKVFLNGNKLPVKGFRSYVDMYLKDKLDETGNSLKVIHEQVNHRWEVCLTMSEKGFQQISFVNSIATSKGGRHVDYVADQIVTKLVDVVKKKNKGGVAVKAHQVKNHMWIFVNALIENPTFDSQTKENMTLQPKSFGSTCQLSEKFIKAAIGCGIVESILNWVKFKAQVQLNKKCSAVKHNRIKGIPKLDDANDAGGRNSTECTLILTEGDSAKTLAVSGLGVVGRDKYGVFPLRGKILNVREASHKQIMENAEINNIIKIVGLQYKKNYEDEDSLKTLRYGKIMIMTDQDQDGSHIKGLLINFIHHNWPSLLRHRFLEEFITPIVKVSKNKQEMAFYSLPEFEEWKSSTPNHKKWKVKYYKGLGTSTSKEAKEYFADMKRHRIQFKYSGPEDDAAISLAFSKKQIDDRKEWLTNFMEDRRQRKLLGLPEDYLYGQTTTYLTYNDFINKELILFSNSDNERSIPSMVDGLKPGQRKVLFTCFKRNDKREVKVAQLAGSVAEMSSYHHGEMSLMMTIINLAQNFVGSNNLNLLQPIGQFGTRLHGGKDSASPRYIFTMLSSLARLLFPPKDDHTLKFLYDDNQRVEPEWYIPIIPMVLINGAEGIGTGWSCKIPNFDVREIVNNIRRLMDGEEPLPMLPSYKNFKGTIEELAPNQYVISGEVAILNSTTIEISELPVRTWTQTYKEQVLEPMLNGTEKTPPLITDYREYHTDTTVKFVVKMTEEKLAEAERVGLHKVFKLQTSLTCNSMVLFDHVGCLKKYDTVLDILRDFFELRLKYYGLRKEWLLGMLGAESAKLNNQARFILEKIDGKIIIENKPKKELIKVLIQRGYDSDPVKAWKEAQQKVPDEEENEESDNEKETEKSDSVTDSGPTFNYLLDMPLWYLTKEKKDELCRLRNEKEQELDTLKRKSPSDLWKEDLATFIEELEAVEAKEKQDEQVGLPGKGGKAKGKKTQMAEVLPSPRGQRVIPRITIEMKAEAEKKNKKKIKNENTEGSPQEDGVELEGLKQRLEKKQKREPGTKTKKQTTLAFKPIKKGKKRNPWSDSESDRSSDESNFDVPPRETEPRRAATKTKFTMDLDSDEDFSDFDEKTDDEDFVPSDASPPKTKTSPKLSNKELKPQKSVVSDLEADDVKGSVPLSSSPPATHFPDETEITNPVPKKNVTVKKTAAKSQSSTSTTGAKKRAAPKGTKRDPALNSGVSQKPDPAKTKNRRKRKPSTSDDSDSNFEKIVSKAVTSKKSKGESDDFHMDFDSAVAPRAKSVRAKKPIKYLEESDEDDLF

Glioblastoma = conditions: temozolomide added to postoperative radiotherapy, cited from earlier work
TOP2A = target: T1, TOP2A (Homo sapiens, UniProt P11388); test: TOP2A enzyme assay (plasmid relaxation assay); assay type: biochemical; conditions: supercoiled plasmid DNA pBR322, 2 units TOP2A, 37° C. 30 min, increasing concentrations
T1 construct: 2 units of TOP2A (Topgen Cat#200H-2); purchased Topgen 200H-2

Cn1nnc2c(C(N)=O)ncn2c1=O [temozolomide]
sensitivity of TOP2A siRNA transfected cells in comparison to cyclophilin siRNA transfected cells (U251 glioma cells): significantly resistant | overall survival rate (Glioblastoma; at 2 years): 27.2% | overall survival rate (Glioblastoma; at 3 years): 16.0% | overall survival rate (Glioblastoma; at 4 years): 12.1% | overall survival rate (Glioblastoma; at 5 years): 9.8% | median survival (Glioblastoma): 14.6 months | inhibition of TOP2A relaxation activity (TOP2A): inhibited TOP2A relaxation activity efficiently
